Measurements reported in EP4818193A1, “COMPOSITION AND METHOD FOR TREATING NEONATAL HYPOXIC-ISCHEMIC ENCEPHALOPATHY” (Suzhou Glenkol Pharma Technology Co., Ltd., priority 2023, dated 2025).
Part of at least one peptide drawing is inferred or uncertain, most often the ends. Ends that are not written are not given here.

Legend:
[1] = tested on: neonatal hypoxic-ischemic encephalopathy; test: Brain tissue injury assessment with TTC in the neonatal hypoxic-ischemic encephalopathy model; type: in vivo, neonatal rats; conditions: 10 mg/kg body weight, tail vein injection 1 hour after injury; TTC staining 48 hours post injury; compared to untreated group
[2] = tested on: neonatal hypoxic-ischemic encephalopathy; test: Morris water maze test for spatial learning and memory 4 months after neonatal hypoxic-ischemic encephalopathy injury; type: in vivo, rats; conditions: for activity time in the target quadrant: probe trial on day 6, platform removed, 4 months after injury, untreated injury 29.49%, sham-surgery 51.16%

Sequence	area of white necrotic brain tissue [1]	escape times ([2]; Morris water maze training days 4 and 5, 4 months after injury, compared to untreated injured group, p < 0.05)	activity time in the target quadrant [2]
YGRKKRRQRRRKKNRNKLRRQHSY [S1]	significantly reduced	significantly shorter	about 47.86%
YGRKKRRQRRRNRRRNSKLQHKKY [scrambled peptide, reference compound]			29.12%
